According to PubChem BioAssay AID2513 (National Center for Advancing Translational Sciences (NCATS), 2010):
Several values for one entry are separate records, joined by “and”; a condition that tells them apart may be missing. Equal entries are not always repeated. The shares of active, inactive and inconclusive entries below differ from those in the screen. Potencies of inconclusive entries are doubtful fits and often do not repeat. Activity calls are given as the source filed them. Calls follow the shape of the dose curve; as a rule, active = well fitted curve in the direction sought with a large enough effect; inconclusive = small, poorly fitted or top-dose-only effect, or another doubt; inactive = no such curve, though single readings can be large or run the other way.

Experiment: Counterscreen Assay for Enhancers of SMN2 Splice Variant Expression: Modulation of SMN1 Expression for Probe SAR
Settings: HEK293 SMN1-luciferase reporter, luminescence, 30-36 h; series mostly up to 46.1 µM; activity change, negative = inhibition: at the top concentration
Source text: NIH Chemical Genomics Center [NCGC] NIH Molecular Libraries Probe Production centers Network [MLPCN] MLPCN Grant: R03 MH084179-01 Assay Submitter (PI): Elliot Androphy NCGC Assay Overview: Spinal muscular atrophy (SMA) is caused by insufficient levels of the survival motor neuron protein SMN. The SMN locus on chromosome 5q13 contains two inverted copies of SMN called SMN1 and SMN2 which are 99% identical at the amino acid level. SMN1 is a fully functional protein and SMN2 skips exon 7 90% of the time. Skipping of exon 7 produces non-functional protein product. 10% of the SMN2 protein includes exon 7 and is fully functional. In the SMA disease state, mutations in the SMN1 locus are the cause of the disease state. Because only 10% of SMN2 is of the fully functional form, it is not sufficient to overcome the deficiency produced by the loss of the SMN1 product. A therapy that either increase the amount of SMN2 product made or to increase the inclusion of exon 7 has been proposed for the treatment of SMA. We have designed an assay to identify small molecules that can increase the amount of functional SMN2 product by appending a luciferase reporter gene after the native SMN2 gene, such that inclusion of exon 7 in the expressed product places the luciferase sequence in frame, thus generating functional luciferase enzyme. As a counterscreen for nonspecific modulators of expression, we have run compounds through a similar assay that measures expression of an SMN1-luciferase chimera.
NCGC Assay Protocol Summary: This screen utilizes a luciferase reporter gene assay, combining the promoter with the major portion of the native SMN1 cDNA (exons 1 -7, intron 8 , exon 8 fused to luciferase) stably expressed in HEK293 cells. Compounds that increase luciferase signal presumably enhance expression of the functional SMN1 splice variant. Passaging media contained DMEM w/ glutamax (+phenol red) 10% FCS, 1x pen/strep, 200 ug/ml hygro, 1x sodium pyruvate. Assay media contained DMEM w/ glutamax (-phenol red) 10% FCS, 1x pen strep, 1x pyruvate Sequence, Parameter, Value, Description (1) Cells, 5 uL, 2000 cells/well, 1536 TC treated White solid bottom plate (2) Time, 10-12 hours, 37C 5% CO2 (3) Compound, 23 nl, MLSMR Library (4) Control Compound, 23 nL, Sodium butyrate st 4.5mM (final) conc (5) Time, 30-36 hours, 37C 5% CO2 (6) Reagent, 3 ul, One Glo (TM) from Promega (7) Time, 5-15 minutes, Room temp (8) Detector, Viewlux: luminescent read, 60 second integration, high speed 2x binning Keywords: Spinal muscular atrophy, SMA, SMN2, high throughput screening, MLSMR, MLPCN, NIH Roadmap, qHTS and NCGC

Structure (SMILES) | activity change, negative = inhibition | Potency
CN(C)c1ccccc1-c1csc(N2CCC(C(N)=O)CC2)n1 | inactive: 5.97% | –
Brc1ccc(-c2csc(N3CCCCC3)n2)cc1 | inactive: -25.7% | –
NC(=O)C1CCN(c2nc(-c3ccc4c(c3)OCCO4)cs2)CC1 | – | active: 19.4 µM
NC(=O)C1CCN(c2nc(-c3ccccc3-c3ccccc3)cs2)CC1 | inactive: -13% | –
NC(=O)C1CCN(c2nc(-c3ccc(F)cc3)cs2)CC1 | – | inconclusive: 77.2 µM [inhibitor, partial curve, poor fit]
Brc1ccc(-c2csc(N3CCOCC3)n2)cc1 | – | inconclusive: 48.7 µM [inhibitor, partial curve, poor fit]
NC(=O)C1CCN(c2nc(-c3ccc(Br)cc3)cs2)CC1 | – | inconclusive: 19.4 µM [inhibitor, partial curve, poor fit] and inconclusive: 77.2 µM [inhibitor, partial curve, poor fit]
CN(C)c1cccc(-c2csc(N3CCC(C(N)=O)CC3)n2)c1 | – | inconclusive: 48.7 µM [inhibitor, partial curve, poor fit]
Cc1ccc(-c2csc(N3CCC(C(N)=O)CC3)n2)cc1 | – | inconclusive: 38.7 µM [inhibitor, partial curve, poor fit]
CC(=O)c1cccc(-c2csc(N3CCC(C(N)=O)CC3)n2)c1 | inactive: -21.4% | –
